The list shows a part of the results.

Amino acid sequences for entries named in this document (tags omitted). A change or cut given only in a name is not applied to a line headed by its entry.
UniProt P00480: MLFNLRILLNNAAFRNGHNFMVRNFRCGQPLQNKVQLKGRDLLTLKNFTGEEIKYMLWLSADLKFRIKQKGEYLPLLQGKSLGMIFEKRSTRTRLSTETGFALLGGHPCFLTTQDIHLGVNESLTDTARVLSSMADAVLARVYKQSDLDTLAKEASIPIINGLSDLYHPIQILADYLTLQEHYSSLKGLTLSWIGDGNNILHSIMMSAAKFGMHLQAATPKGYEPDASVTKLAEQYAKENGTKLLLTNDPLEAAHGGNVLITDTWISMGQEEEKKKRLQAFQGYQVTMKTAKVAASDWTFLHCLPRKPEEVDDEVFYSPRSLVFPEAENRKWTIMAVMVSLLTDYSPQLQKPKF
UniProt Q9Y530: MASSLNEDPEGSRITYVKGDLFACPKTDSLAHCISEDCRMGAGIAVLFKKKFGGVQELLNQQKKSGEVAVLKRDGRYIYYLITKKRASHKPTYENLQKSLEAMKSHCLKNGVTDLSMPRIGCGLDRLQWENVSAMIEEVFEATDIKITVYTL
UniProt Q5BJF6: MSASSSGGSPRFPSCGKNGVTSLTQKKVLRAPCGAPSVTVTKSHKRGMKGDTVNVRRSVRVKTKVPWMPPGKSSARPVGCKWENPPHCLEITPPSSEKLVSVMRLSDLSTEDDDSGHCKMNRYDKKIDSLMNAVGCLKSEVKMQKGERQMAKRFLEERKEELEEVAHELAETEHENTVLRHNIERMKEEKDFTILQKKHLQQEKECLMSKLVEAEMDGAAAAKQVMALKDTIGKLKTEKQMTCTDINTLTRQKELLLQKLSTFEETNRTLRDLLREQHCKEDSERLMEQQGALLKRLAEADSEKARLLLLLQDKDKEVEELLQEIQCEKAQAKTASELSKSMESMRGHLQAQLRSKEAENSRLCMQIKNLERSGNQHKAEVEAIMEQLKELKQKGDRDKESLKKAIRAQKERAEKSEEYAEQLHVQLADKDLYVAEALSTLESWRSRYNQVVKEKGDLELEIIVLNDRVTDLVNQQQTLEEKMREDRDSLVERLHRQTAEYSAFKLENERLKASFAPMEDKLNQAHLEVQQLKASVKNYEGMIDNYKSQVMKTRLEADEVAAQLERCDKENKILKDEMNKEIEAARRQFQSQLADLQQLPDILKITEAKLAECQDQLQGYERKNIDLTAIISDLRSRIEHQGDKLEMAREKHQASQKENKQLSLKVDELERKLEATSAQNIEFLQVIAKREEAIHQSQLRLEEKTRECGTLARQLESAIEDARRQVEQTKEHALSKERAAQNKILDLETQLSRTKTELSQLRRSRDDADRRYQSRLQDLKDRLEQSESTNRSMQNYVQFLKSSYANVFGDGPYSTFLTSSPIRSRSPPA
UniProt O75665: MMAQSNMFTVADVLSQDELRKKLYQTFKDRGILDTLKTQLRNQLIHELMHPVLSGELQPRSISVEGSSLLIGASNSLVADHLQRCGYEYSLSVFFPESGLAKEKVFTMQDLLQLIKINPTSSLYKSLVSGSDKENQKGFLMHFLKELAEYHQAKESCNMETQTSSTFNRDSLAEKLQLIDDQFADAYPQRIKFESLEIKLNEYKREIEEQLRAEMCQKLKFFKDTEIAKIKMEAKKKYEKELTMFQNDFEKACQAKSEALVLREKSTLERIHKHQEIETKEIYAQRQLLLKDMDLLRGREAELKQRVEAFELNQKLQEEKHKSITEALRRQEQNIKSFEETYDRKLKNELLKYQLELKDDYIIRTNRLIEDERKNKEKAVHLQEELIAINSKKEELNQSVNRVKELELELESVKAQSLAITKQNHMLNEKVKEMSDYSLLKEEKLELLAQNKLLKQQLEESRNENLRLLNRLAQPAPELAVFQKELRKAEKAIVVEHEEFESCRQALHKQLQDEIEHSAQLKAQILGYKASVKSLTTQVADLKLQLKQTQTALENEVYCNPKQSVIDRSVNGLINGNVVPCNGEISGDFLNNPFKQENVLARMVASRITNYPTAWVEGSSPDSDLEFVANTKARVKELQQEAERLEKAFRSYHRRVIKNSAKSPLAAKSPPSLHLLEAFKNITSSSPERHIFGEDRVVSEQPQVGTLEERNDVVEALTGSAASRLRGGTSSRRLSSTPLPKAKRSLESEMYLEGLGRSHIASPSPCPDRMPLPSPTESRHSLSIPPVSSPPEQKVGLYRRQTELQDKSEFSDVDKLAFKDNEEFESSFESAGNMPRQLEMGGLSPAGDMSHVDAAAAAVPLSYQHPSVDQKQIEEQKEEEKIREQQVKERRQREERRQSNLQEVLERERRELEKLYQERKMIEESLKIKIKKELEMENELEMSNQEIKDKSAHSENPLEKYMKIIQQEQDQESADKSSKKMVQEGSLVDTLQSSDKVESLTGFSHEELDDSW
UniProt Q9H4B0: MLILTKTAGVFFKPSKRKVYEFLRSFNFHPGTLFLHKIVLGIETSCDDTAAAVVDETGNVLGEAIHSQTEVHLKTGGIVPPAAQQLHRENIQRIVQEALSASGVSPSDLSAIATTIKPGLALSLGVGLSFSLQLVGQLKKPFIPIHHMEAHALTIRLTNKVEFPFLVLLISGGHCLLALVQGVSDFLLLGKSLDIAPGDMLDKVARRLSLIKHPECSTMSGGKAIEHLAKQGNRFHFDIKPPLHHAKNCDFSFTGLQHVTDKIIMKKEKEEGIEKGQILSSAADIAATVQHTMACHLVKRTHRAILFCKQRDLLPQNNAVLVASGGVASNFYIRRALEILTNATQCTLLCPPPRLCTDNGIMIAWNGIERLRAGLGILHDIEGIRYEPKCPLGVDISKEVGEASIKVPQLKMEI
UniProt Q8N573: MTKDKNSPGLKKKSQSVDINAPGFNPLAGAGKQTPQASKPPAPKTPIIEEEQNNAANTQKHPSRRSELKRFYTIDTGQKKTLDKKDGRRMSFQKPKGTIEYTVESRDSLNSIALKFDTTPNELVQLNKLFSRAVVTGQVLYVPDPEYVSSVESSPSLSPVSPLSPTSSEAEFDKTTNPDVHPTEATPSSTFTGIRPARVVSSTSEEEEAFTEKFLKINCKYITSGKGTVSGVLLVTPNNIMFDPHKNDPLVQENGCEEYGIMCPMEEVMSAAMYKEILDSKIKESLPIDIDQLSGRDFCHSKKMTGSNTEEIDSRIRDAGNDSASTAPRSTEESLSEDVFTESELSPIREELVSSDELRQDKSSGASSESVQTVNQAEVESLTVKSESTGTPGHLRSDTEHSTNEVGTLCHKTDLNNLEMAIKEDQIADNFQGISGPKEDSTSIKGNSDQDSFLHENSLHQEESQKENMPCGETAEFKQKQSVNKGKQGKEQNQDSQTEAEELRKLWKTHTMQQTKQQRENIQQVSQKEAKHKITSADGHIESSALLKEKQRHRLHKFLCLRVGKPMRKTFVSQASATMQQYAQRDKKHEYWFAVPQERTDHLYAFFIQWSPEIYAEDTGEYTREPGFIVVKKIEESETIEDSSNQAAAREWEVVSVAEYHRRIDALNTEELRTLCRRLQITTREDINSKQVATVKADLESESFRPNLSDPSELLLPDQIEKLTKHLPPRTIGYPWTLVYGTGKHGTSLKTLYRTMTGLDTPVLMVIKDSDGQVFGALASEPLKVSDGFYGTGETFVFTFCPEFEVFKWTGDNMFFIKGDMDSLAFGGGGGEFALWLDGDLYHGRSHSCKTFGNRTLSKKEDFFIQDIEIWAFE
UniProt Q9BW27: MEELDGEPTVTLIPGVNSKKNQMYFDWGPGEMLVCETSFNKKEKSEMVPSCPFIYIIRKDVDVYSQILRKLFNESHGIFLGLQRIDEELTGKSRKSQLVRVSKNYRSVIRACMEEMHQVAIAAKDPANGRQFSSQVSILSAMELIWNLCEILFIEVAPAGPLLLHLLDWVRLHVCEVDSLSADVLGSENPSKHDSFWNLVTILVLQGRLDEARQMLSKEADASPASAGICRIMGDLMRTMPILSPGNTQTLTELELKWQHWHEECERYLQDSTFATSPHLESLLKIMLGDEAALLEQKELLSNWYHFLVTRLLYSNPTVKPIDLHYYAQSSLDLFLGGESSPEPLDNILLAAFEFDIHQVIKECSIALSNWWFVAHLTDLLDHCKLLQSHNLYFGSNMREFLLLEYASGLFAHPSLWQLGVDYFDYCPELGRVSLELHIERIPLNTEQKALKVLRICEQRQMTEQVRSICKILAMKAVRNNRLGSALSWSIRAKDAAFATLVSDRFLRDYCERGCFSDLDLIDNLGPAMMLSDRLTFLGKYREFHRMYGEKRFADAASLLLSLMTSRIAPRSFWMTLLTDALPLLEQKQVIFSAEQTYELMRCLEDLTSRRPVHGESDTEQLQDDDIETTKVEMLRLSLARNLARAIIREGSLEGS
UniProt Q9H300: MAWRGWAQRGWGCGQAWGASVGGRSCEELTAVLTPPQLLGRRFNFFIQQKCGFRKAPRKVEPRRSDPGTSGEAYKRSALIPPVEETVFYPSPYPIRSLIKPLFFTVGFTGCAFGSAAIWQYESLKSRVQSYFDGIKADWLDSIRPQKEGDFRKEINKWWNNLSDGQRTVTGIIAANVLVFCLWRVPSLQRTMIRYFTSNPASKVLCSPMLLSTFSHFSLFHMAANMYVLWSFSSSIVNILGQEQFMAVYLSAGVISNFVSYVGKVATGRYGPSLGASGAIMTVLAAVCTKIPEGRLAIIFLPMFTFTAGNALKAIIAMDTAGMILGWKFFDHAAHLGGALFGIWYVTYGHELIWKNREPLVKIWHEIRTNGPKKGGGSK
UniProt Q12769: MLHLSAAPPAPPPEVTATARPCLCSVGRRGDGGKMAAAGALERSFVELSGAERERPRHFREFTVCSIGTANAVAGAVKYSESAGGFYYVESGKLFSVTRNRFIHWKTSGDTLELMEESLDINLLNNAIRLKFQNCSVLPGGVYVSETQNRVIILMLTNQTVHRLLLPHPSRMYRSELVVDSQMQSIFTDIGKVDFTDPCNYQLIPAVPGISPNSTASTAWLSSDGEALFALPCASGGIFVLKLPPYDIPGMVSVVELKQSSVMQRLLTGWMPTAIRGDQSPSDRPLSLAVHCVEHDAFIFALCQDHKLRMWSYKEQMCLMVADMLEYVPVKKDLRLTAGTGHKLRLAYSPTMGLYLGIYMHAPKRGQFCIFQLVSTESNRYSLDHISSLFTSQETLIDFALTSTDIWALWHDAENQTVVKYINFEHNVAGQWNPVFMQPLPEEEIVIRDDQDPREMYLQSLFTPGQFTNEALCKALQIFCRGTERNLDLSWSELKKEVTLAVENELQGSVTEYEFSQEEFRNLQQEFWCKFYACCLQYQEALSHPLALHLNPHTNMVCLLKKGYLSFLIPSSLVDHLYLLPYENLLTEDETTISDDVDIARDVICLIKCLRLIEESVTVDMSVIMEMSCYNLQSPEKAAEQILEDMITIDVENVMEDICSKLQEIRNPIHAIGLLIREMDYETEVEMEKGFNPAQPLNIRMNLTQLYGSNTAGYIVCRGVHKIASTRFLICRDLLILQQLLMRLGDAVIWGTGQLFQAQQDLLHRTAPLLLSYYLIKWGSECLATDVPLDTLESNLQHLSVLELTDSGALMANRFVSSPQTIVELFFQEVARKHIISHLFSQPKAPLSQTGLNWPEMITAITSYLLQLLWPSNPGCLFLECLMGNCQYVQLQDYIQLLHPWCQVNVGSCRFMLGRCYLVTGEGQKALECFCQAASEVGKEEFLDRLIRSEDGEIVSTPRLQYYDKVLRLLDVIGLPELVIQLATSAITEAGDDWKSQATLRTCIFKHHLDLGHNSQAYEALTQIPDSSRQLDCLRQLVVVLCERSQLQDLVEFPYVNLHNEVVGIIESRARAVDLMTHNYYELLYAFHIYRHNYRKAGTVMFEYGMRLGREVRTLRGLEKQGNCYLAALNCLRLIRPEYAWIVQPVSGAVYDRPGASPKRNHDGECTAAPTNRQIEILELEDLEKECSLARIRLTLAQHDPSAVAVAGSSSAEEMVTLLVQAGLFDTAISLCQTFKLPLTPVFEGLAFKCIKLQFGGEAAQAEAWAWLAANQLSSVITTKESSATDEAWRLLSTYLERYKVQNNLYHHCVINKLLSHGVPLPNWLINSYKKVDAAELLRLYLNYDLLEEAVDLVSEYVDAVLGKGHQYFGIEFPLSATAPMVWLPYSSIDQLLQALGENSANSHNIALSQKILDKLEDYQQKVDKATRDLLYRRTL

The values that follow come from the supplement of paper PMC10849652.

What all share (assay): log2 fold change, soluble protein after heating vs DMSO (PISA); higher = thermal stabilisation; K562 lysate, 10 uM; active = over 0.2 and 3.5 SD of the protein, either way, in both replicates (recomputed)
Compound in assay [1]: C1=CC=C(C=C1)[C@H](COC2=CC3=C(C=C2)NC(=O)N3)NC(=O)C4=CC=CN(C4=O)CC5=CC(=C(C=C5)F)F
The method in brief:
(§1)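 Thermal stability, expressed as log-two fold change relative to solvent controls, is given from duplicates. Crude K562 extract in PBS pH 7.4 with 1 mM MgCl2, at 1 mg/mL protein, was treated with 10 μM compound for 30 min and heated in aliquots for 3 min across 48°C-58°C. After pooling, adjustment to 0.5% NP-40 at 4°C and centrifugation at 21,000xg for 90 min, supernatant protein was measured by TMTpro 16plex LC-MS/MS with channel sums equalised.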

Compound in assay [2]: CC1=C(SC2=C1C(=N[C@H](C3=NN=C(N32)C)CC(=O)N)C4=CC=C(C=C4)Cl)C
The method in brief:
as §1

Compound in assay [3]: CC1=C2C(=CC=C1)N=C(N(C2=O)C3=CC=CC=C3C)CN4C=NC5=C(N=CN=C54)N
An outline of the steps:
as §1

Compound in assay [4]: Cc1sc2c(c1C)C(c1ccc(Cl)cc1)=N[C@@H](CC(=O)OC(C)(C)C)c1nnc(C)n1-2
The method in brief: as §1

Compound in assay [5]: c1ccc([C@@H]2C[C@H]2NC2CCNCC2)cc1
An outline of the steps:
as §1

OTC (UniProt P00480): the log2 fold change in assay [1] was inactive: -0.11; in assay [2], inactive: 0.131; in assay [3], inactive: -0.028; in assay [4], inactive: -0.38; in assay [5], active: -2.16.

As for OARD1 (UniProt Q9Y530), the log2 fold change is inactive: -0.005 in assay [1]; inactive: -0.014 in assay [2]; inactive: 0.035 in assay [3]; inactive: 0.044 in assay [4]; inactive: -0.005 in assay [5].

As to ODF2 (UniProt Q5BJF6), the log2 fold change is inactive: 0.094 in assay [1]; inactive: -0.253 in assay [2]; inactive: 0.044 in assay [3]; inactive: 0 in assay [4]; inactive: -0.153 in assay [5].

As for OFD1 (UniProt O75665), the log2 fold change is inactive: -0.085 in assay [1]; inactive: 0.13 in assay [2]; inactive: 0.106 in assay [3]; inactive: 0.089 in assay [4]; inactive: 0.016 in assay [5].

For OSGEPL1 (UniProt Q9H4B0), the log2 fold change in assay [1] was inactive: 0.082; in assay [2] it was inactive: 0.108; in assay [3], inactive: 0.044.

For the target OXR1 (UniProt Q8N573), the log2 fold change is inactive: 0.106 in assay [1]; inactive: 0.01 in assay [2]; inactive: 0.019 in assay [3]; inactive: -0.043 in assay [4]; inactive: 0.021 in assay [5].

For the target NUP85 (UniProt Q9BW27), the log2 fold change in assay [1] is inactive: -0.027; in assay [2], inactive: 0.028; in assay [3], inactive: 0.046; in assay [4], inactive: -0.009; in assay [5] it was inactive: -0.003.

As to NXF1 (UniProt Q9UBU9), the log2 fold change was inactive: 0 in assay [1]; inactive: 0.116 in assay [2]; inactive: 0.064 in assay [3]; inactive: 0.044 in assay [4]; inactive: -0.02 in assay [5].

Take PARL (UniProt Q9H300): the log2 fold change in assay [1] was inactive: -0.052; in assay [2], inactive: -0.026; in assay [3], inactive: -0.008; in assay [4], inactive: 0.043; in assay [5], inactive: 0.

Consider NUP160 (UniProt Q12769), for which the log2 fold change in assay [1] is inactive: -0.021; in assay [2], inactive: -0.027; in assay [3], inactive: 0.012; in assay [4], inactive: -0.04; in assay [5] it was inactive: 0.01.
